Reference: US6825173B2, “Preparation of fagopyritols and uses therefor” (Cornell Research Foundation, Inc., priority 1997, dated 2004)
“Also recorded” adds a separate entry of the source.

What was measured:
[1] = Analysis of chirality of chiro-inositol by chiral column GC; settings: Hydrolysis by 2 N trifluoroacetic acid; chiral capillary column GC
[2] = Acid hydrolysis with trifluoroacetic acid, hydrolysis products and mole ratios by GC; settings: Hydrolysis by 2 N trifluoroacetic acid
[3] = system: yeast; assay: Yeast digestion of sucrose and fagopyritols in buckwheat flour extract; settings: for soluble carbohydrate amount during yeast incubation: Birkett Mills flour extract

OCC1O[C@@H](O[C@H]2C(O)C(O)[C@H](O)C(O)C2O)C(O)C(O)[C@H]1O (stereo partly drawn) [Fagopyritol A1, O-α-D-galactopyranosyl-(1→3)-D-chiro-inositol]
D-chiro-inositol (present in acid hydrolysis products) [1]: yes | L-chiro-inositol (present in acid hydrolysis products) [1]: no | Partial hydrolysis products ([2]; Fagopyritol A and B Series): D-chiro-inositol; also recorded: D-galactose

OCC1O[C@H](OCC2O[C@@H](O[C@H]3C(O)C(O)[C@H](O)C(O)C3O)C(O)C(O)[C@H]2O)C(O)C(O)[C@H]1O (stereo partly drawn) [Fagopyritol A2, O-α-D-galactopyranosyl-(1→6)-O-α-D-galactopyranosyl-(1→3)-D-chiro-inositol]
D-chiro-inositol (present in acid hydrolysis products) [1]: yes | L-chiro-inositol (present in acid hydrolysis products) [1]: no | Partial hydrolysis products ([2]; Fagopyritol A and B Series): Fagopyritol A1; also recorded: galactobiose; also recorded: D-galactose; also recorded: D-chiro-inositol

OCC1O[C@H](OC2C(O)[C@H](O)C(O)C(O)[C@@H]2O)C(O)C(O)[C@H]1O (stereo partly drawn) [Fagopyritol B1, O-α-D-galactopyranosyl-(1→2)-D-chiro-inositol]
D-chiro-inositol (present in acid hydrolysis products) [1]: yes | L-chiro-inositol (present in acid hydrolysis products) [1]: no | Partial hydrolysis products ([2]; Fagopyritol A and B Series): D-galactose; also recorded: D-chiro-inositol

OCC1O[C@H](OCC2O[C@H](OC3C(O)[C@H](O)C(O)C(O)[C@@H]3O)C(O)C(O)[C@H]2O)C(O)C(O)[C@H]1O (stereo partly drawn) [Fagopyritol B2, O-α-D-galactopyranosyl-(1→6)-O-α-D-galactopyranosyl-(1→2)-D-chiro-inositol]
D-chiro-inositol (present in acid hydrolysis products) [1]: yes | L-chiro-inositol (present in acid hydrolysis products) [1]: no | Partial hydrolysis products ([2]; Fagopyritol A and B Series): Fagopyritol A1; also recorded: galactobiose; also recorded: D-galactose; also recorded: D-chiro-inositol

OC[C@H]1O[C@H](OC2[C@@H](O)[C@H](O)C(O)[C@H](O)[C@@H]2O)[C@H](O)[C@@H](O)[C@H]1O (stereo partly drawn) [Galactinol (gt1)]
Partial hydrolysis products ([2]; Galactinol Series): myo-inositol; also recorded: D-galactose

OC[C@H]1O[C@@](CO)(O[C@H]2O[C@H](CO)[C@@H](O)[C@H](O)[C@H]2O)[C@@H](O)[C@@H]1O [sucrose]
fraction digested by yeast ([3]; 50 mg of yeast, Birkett Mills flour, within the first 2 h): About 97% | soluble carbohydrate amount during yeast incubation ([3]; 50 mg yeast, 0 h): 35.8 mg/25 g flour | soluble carbohydrate amount during yeast incubation ([3]; 50 mg yeast, 2 h): 0.9 mg/25 g flour | soluble carbohydrate amount during yeast incubation ([3]; 100 mg yeast, 0 h): 31.6 mg/25 g flour | fraction digested by yeast ([3]; cake yeast 8500 mg, 22° C., within the first 6 h): About 97% | digestion by / stability to yeast (in words) ([3]; incubation of buckwheat flour extract with yeast): digested within the first 6 h

OC[C@H]1O[C@H](O[C@H]2O[C@H](CO)[C@@H](O)[C@H](O)[C@H]2O)[C@H](O)[C@@H](O)[C@@H]1O [trehalose, O-α-D-glucopyranosyl-(1-1′)-O-α-D-glucoside]
soluble carbohydrate amount during yeast incubation ([3]; 50 mg yeast, 2 h): 2.9 mg/25 g flour | soluble carbohydrate amount during yeast incubation ([3]; 50 mg yeast, 4 h): 2.8 mg/25 g flour | soluble carbohydrate amount during yeast incubation ([3]; 50 mg yeast, 6 h): 2.9 mg/25 g flour | soluble carbohydrate amount during yeast incubation ([3]; 100 mg yeast, 0 h): 1.0 mg/25 g flour | soluble carbohydrate amount during yeast incubation ([3]; 100 mg yeast, 2 h): 5.2 mg/25 g flour | soluble carbohydrate amount during yeast incubation ([3]; 100 mg yeast, 4 h): 4.5 mg/25 g flour | soluble carbohydrate amount during yeast incubation ([3]; 100 mg yeast, 6 h): 4.5 mg/25 g flour

O-α-D-galactopyranosyl-(1→6)-O-α-D-galactopyranosyl-(1→6)-O-α-D-galactopyranosyl-(1→2)-D-chiro-inositol [Fagopyritol B3]
Partial hydrolysis products ([2]; Fagopyritol A and B Series): Fagopyritol B1; also recorded: Fagopyritol B2

O-α-D-galactopyranosyl-(1→6)-O-α-D-galactopyranosyl-(1→6)-O-α-D-galactopyranosyl-(1→3)-D-chiro-inositol [Fagopyritol A3]
D-chiro-inositol (present in acid hydrolysis products) [1]: yes | L-chiro-inositol (present in acid hydrolysis products) [1]: no | Partial hydrolysis products ([2]; Fagopyritol A and B Series): Fagopyritol A2; also recorded: Fagopyritol A1; also recorded: galactotriose; also recorded: galactobiose; also recorded: D-galactose; also recorded: D-chiro-inositol
